Patent publication US4308256A, “Method of inducing analgesia” (American Home Products Corporation, priority 1980, dated 1981)
Further values from the same series stand in other lists.

Test system: male Charles River rats
Assay: D'Amour-Smith rat tail-flick procedure (radiant heat, 8 second cut-off), intraventricular injection
Type: in vivo
Procedure: Intraventricular cannulae, made of 27-gauge stainless steel tubing, are implanted in 300-400 g. male Charles River rats under pentobarbital anesthesia. After a recovery period of at least one week, the rats are restrained in a wire-mesh cylindrical chamber so that the tip of the tail can be positioned at the focal point of a radiant heat source. After an acclimatistation period of 5 minutes, the lamp is turned on and an electric clock activated. Movement of the tip of the tail exposes a photocell to the lamp, which turns off the thermal stimulus and stops the clock. If a rat fails to move its tail within 8 seconds, the heat is automatically turned off to prevent blistering. The intensity of the lamp is adjusted in each case to produce at least three baseline tail-flick latencies of 2.5-4.5 seconds. Tests are initially made every 2 minutes, then every 5 minutes and finally every 15 minutes.
Initially, using the above outlined procedure, the effects of intraventricularly administered leucine-enkephalin are tested in rats according to the above procedure.
The rat tail flick procedure is repeated, first by the simultaneous intraventricular injection of both leucine-enkephalin and bestatin and then by the initial injection of bestatin followed one hour later by the injection of leucine-enkephalin.
The above procedure is repeated again, however, the bestatin is administered first and then one hour later the leucine-enkephalin is administered.
The effects of bestatin alone are tested in rats according to the rat tail flick procedure.

CC(C)C[C@H](NC(=O)[C@@H](O)[C@H](N)Cc1ccccc1)C(=O)O [bestatin, [(2S,3R)-3-amino-2-hydroxy-4-phenylbutanoyl]-L-leucine]
Tail-flick latency (200 μg bestatin alone into lateral ventricle, Rat 1, 6 min): 4.24 s | Tail-flick latency (200 μg bestatin alone into lateral ventricle, Rat 1, 8 min): 8.00 s | Tail-flick latency (200 μg bestatin alone into lateral ventricle, Rat 1, 10 min): 8.00 s | Tail-flick latency (200 μg bestatin alone into lateral ventricle, Rat 1, 12 min): 8.00 s | Tail-flick latency (200 μg bestatin alone into lateral ventricle, Rat 1, 14 min): 6.41 s | Tail-flick latency (200 μg bestatin alone into lateral ventricle, Rat 1, 16 min): 8.00 s | Tail-flick latency (200 μg bestatin alone into lateral ventricle, Rat 1, 18 min): 8.00 s | Tail-flick latency (200 μg bestatin alone into lateral ventricle, Rat 1, 20 min): 7.39 s | Tail-flick latency (200 μg bestatin alone into lateral ventricle, Rat 1, 22 min): 8.00 s | Tail-flick latency (200 μg bestatin alone into lateral ventricle, Rat 1, 24 min): 8.00 s | Tail-flick latency (200 μg bestatin alone into lateral ventricle, Rat 1, 26 min): 7.09 s | Tail-flick latency (200 μg bestatin alone into lateral ventricle, Rat 1, 28 min): 8.00 s | Tail-flick latency (200 μg bestatin alone into lateral ventricle, Rat 1, 30 min): 8.00 s | Tail-flick latency (200 μg bestatin alone into lateral ventricle, Rat 1, 32 min): 3.56 s | Tail-flick latency (200 μg bestatin alone into lateral ventricle, Rat 1, 36 min): 3.26 s | Tail-flick latency (200 μg bestatin alone into lateral ventricle, Rat 1, 38 min): 2.64 s | Tail-flick latency (200 μg bestatin alone into lateral ventricle, Rat 1, 40 min): 3.51 s | Tail-flick latency (200 μg bestatin alone into lateral ventricle, Rat 1, 42 min): 4.24 s | Tail-flick latency (200 μg bestatin alone into lateral ventricle, Rat 1, 44 min): 2.81 s | Tail-flick latency (400 μg bestatin alone into lateral ventricle, Rat 1, 2 min): 4.07 s | Tail-flick latency (400 μg bestatin alone into lateral ventricle, Rat 1, 4 min): 8.00 s | Tail-flick latency (400 μg bestatin alone into lateral ventricle, Rat 1, 6 min): 8.00 s | Tail-flick latency (400 μg bestatin alone into lateral ventricle, Rat 1, 8 min): 8.00 s | Tail-flick latency (400 μg bestatin alone into lateral ventricle, Rat 1, 10 min): 8.00 s | Tail-flick latency (400 μg bestatin alone into lateral ventricle, Rat 1, 12 min): 8.00 s | Tail-flick latency (400 μg bestatin alone into lateral ventricle, Rat 1, 14 min): 8.00 s | Tail-flick latency (400 μg bestatin alone into lateral ventricle, Rat 1, 16 min): 8.00 s | Tail-flick latency (400 μg bestatin alone into lateral ventricle, Rat 1, 18 min): 8.00 s | Tail-flick latency (400 μg bestatin alone into lateral ventricle, Rat 1, 20 min): 8.00 s | Tail-flick latency (400 μg bestatin alone into lateral ventricle, Rat 1, 22 min): 8.00 s | Tail-flick latency (400 μg bestatin alone into lateral ventricle, Rat 1, 24 min): 8.00 s | Tail-flick latency (400 μg bestatin alone into lateral ventricle, Rat 1, 26 min): 8.00 s | Tail-flick latency (400 μg bestatin alone into lateral ventricle, Rat 1, 28 min): 8.00 s | Tail-flick latency (400 μg bestatin alone into lateral ventricle, Rat 1, 30 min): 8.00 s | Tail-flick latency (400 μg bestatin alone into lateral ventricle, Rat 1, 35 min): 8.00 s | Tail-flick latency (400 μg bestatin alone into lateral ventricle, Rat 1, 40 min): 8.00 s | Tail-flick latency (400 μg bestatin alone into lateral ventricle, Rat 1, 45 min): 8.00 s | Tail-flick latency (400 μg bestatin alone into lateral ventricle, Rat 1, 50 min): 8.00 s | Tail-flick latency (400 μg bestatin alone into lateral ventricle, Rat 1, 55 min): 8.00 s | Tail-flick latency (400 μg bestatin alone into lateral ventricle, Rat 1, 60 min): 8.00 s | Tail-flick latency (400 μg bestatin alone into lateral ventricle, Rat 1, 75 min): 8.00 s | Tail-flick latency (400 μg bestatin alone into lateral ventricle, Rat 1, 90 min): 8.00 s | Tail-flick latency (400 μg bestatin alone into lateral ventricle, Rat 1, 105 min): 8.00 s | Tail-flick latency (400 μg bestatin alone into lateral ventricle, Rat 1, 120 min): 8.00 s | Tail-flick latency (400 μg bestatin alone into lateral ventricle, Rat 1, 135 min): 8.00 s | Tail-flick latency (400 μg bestatin alone into lateral ventricle, Rat 1, 150 min): 8.00 s | Tail-flick latency (400 μg bestatin alone into lateral ventricle, Rat 1, 165 min): 8.00 s | Tail-flick latency (400 μg bestatin alone into lateral ventricle, Rat 1, 180 min): 8.00 s | Tail-flick latency (400 μg bestatin alone into lateral ventricle, Rat 1, 195 min): 8.00 s
